# Laboratory results: the supplement of paper PMC7666118
# Sequences of proteins named here, by UniProt entry; tags and fusion partners are left off. A change or cut given only in a name is not applied to a line headed by its entry.
# UniProt P07311: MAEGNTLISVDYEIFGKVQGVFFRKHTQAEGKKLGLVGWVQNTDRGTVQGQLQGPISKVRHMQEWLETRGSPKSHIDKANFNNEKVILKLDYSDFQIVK
# UniProt Q6ULP2: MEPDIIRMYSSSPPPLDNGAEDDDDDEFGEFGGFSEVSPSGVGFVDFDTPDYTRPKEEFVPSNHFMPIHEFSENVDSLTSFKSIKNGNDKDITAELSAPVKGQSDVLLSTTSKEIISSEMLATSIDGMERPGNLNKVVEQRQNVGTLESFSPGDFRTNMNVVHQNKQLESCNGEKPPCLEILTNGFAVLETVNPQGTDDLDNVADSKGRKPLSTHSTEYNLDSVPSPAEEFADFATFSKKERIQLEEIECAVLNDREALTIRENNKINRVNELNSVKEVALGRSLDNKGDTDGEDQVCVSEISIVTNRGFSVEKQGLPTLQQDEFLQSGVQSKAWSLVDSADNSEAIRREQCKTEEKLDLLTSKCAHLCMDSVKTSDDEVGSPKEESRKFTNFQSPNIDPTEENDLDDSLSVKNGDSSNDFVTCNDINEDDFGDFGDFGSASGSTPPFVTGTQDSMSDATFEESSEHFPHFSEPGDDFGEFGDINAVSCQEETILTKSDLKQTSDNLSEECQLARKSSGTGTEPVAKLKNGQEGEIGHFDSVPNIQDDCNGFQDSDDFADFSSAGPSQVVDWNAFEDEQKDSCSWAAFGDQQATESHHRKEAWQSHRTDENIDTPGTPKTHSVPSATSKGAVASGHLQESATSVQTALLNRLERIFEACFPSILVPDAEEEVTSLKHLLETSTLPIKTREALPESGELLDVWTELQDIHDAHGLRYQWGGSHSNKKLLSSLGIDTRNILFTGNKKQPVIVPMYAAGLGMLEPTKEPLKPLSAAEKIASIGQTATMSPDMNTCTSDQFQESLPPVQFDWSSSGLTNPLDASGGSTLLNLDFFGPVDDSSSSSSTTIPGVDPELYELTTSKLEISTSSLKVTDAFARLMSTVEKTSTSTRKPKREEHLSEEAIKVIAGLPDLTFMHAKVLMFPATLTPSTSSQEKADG
# UniProt Q53RE8: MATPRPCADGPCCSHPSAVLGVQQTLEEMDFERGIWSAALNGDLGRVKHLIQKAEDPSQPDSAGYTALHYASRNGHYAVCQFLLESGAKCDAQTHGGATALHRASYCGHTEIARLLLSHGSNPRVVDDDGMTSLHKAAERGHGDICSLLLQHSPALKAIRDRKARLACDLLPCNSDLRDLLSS
# UniProt O75843: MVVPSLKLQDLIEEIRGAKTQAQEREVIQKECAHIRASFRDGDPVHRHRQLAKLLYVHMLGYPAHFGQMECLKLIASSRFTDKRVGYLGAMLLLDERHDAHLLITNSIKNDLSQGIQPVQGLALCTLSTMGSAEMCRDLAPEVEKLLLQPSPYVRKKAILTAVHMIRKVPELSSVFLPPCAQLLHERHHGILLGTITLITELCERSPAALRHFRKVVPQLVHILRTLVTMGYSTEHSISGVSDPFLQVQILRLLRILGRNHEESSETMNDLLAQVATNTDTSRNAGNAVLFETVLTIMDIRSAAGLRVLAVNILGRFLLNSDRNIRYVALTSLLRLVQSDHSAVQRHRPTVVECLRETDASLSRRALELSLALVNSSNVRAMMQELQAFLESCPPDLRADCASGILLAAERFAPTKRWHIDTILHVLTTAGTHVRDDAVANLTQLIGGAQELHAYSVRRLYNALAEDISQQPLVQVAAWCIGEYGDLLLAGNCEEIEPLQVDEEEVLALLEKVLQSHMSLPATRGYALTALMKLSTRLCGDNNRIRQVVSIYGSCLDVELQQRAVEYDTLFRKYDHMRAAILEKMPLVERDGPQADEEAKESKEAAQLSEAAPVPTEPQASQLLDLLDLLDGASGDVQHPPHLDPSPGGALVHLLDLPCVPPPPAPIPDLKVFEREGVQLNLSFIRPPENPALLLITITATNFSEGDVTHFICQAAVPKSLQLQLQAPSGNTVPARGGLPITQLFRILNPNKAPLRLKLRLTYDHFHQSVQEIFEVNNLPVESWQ
# UniProt O60306: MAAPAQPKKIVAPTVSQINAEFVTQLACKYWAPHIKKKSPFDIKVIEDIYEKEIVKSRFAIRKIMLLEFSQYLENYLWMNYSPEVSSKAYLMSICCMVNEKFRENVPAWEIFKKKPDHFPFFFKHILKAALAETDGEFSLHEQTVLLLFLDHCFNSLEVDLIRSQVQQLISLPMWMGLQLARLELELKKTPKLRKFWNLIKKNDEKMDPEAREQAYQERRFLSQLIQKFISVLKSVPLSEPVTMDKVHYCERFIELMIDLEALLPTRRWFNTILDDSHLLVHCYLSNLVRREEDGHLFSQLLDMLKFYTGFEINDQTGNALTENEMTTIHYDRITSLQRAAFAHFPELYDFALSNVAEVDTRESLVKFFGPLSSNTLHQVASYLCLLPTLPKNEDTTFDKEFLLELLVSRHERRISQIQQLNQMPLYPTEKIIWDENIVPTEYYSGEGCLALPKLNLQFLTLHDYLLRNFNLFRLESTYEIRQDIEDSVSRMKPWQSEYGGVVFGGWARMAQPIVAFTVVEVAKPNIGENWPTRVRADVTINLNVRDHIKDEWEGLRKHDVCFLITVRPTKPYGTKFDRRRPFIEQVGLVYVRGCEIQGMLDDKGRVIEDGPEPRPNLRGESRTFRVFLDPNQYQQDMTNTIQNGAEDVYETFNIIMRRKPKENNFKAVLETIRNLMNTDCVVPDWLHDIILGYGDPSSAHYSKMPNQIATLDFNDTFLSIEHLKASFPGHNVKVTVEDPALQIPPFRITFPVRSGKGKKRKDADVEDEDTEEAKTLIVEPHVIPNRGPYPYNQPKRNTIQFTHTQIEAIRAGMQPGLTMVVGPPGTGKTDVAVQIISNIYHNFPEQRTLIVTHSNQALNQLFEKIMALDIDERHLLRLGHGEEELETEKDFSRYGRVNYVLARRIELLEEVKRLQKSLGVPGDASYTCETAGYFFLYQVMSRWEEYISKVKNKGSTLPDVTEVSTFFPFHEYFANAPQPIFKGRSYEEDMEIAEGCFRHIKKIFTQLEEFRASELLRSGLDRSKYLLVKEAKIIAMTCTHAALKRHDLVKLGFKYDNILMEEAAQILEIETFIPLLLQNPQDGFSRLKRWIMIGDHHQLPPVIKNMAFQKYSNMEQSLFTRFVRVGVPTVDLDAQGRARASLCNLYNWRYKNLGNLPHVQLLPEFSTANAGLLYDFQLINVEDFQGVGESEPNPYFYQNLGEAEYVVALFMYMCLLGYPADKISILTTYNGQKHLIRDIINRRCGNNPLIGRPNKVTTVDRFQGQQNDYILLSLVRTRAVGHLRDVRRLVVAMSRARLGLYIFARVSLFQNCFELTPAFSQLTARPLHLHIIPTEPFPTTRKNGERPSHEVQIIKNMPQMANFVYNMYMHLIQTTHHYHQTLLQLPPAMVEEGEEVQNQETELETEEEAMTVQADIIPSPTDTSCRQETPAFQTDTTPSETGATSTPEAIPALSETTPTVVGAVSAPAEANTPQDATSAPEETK
# UniProt Q4VCS5: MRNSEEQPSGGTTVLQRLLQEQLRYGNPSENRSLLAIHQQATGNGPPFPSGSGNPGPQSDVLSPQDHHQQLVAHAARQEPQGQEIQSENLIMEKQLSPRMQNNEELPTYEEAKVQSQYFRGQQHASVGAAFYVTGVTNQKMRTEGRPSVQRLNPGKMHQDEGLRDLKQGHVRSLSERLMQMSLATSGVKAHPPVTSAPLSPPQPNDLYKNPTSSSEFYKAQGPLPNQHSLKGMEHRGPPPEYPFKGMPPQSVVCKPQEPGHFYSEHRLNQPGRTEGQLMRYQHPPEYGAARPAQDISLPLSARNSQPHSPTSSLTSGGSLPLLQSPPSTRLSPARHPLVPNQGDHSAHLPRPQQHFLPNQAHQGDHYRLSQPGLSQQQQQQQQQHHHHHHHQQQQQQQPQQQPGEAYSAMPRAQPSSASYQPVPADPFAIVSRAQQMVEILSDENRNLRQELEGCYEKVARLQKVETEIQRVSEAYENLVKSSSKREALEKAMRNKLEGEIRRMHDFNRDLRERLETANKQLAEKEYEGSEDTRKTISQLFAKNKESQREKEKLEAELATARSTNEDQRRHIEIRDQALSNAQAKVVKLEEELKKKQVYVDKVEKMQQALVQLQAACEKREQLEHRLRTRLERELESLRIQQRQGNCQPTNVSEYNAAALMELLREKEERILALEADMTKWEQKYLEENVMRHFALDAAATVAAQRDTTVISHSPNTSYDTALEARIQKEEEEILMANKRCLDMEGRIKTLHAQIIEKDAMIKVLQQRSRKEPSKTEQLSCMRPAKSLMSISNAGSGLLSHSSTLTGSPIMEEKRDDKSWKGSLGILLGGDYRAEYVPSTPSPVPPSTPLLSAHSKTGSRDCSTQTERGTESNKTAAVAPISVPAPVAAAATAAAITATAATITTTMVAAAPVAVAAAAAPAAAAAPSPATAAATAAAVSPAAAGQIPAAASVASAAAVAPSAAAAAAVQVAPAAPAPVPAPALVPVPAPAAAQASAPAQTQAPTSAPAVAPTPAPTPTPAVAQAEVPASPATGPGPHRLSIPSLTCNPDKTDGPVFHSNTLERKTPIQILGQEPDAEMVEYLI
# UniProt P53367: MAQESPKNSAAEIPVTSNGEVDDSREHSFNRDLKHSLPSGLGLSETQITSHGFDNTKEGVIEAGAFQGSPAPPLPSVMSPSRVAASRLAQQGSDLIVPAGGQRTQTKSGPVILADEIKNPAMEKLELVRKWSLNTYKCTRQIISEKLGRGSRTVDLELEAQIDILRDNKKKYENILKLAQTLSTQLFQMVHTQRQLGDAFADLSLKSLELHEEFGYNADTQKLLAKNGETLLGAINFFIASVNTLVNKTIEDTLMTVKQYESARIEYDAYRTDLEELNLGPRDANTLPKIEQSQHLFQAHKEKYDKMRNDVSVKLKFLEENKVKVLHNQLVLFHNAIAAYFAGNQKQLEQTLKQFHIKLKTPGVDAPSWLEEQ
# UniProt Q13685: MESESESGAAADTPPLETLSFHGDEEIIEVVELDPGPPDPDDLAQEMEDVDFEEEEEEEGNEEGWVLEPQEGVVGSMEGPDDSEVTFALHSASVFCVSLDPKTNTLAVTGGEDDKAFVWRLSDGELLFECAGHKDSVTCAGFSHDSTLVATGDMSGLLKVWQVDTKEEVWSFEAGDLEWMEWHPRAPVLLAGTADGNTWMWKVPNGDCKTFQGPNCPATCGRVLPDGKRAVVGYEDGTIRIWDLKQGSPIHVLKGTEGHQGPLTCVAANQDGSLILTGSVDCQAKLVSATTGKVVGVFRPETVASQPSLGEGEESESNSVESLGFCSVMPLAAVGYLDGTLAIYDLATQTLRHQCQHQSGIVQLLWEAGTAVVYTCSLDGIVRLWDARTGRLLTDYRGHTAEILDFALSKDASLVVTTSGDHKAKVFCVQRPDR
# UniProt O00154: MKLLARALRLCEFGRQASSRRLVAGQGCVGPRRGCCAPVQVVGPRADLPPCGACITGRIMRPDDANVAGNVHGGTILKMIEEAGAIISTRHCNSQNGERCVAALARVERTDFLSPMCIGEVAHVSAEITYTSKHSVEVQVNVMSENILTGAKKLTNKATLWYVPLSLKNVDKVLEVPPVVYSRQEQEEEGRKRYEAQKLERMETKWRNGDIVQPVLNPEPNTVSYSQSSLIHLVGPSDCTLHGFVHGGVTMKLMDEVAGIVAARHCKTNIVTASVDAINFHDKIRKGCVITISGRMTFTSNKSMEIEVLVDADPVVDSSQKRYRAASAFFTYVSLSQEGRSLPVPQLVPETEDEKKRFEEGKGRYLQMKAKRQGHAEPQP
# UniProt P53365: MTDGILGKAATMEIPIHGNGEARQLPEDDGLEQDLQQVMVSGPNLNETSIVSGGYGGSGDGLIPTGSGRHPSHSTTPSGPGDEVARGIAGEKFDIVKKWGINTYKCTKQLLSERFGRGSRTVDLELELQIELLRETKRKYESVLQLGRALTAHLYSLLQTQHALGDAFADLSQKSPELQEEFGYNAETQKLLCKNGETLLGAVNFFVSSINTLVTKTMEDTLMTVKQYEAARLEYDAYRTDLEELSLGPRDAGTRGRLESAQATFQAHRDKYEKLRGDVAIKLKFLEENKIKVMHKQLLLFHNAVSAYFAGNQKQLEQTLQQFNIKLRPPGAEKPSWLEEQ
# UniProt Q9NUS5: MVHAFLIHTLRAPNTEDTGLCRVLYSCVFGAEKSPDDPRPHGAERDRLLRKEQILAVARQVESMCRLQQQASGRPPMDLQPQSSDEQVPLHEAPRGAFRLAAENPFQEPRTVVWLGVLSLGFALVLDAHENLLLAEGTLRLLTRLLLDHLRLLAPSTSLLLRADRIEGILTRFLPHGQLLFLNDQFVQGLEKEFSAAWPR
# UniProt P39687: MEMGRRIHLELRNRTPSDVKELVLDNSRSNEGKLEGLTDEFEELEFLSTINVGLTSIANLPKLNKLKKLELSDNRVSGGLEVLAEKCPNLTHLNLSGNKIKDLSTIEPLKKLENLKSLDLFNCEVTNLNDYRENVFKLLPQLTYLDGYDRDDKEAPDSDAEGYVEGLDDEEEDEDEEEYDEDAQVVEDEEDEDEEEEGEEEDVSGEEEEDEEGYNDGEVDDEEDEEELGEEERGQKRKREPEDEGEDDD
# The list shows a part of the results.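 Rule for the calls: active = dose-dependent thermal stabilisation significant by F-test of dose-response against flat model at 10% FDR; inactive = not significant.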
# Compound: Nc1nc2c(ncn2[C@@H]2O[C@H](COP(=O)(O)OP(=O)(O)OP(=O)(O)O)[C@@H](O)[C@H]2O)c(=O)[nH]1
# Experiment: dose-dependent thermal stabilisation call (2D-TPP, DLPTP, 10% FDR) (binary (1 = stabilised)); higher = stabilised by the compound
# Conditions: system: Jurkat gel-filtered lysate; concentration range 1-500 µM
# Method: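 2D thermal proteome profiling in gel-filtered Jurkat E6.1 lysate (2 mg/ml) treated with NaGTP (0, 1, 10, 100, 500 uM) for 10 min at room temperature, then heated 3 min at one of 12 temperatures (42-63.9 C). Soluble protein was quantified by TMT10 MS. The value is the DLPTP call of the paper: dose-dependent thermal stabilisation over all temperatures at 10% FDR (F-test of a dose-response against a flat model); one experiment, one call per tested protein.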
row,Target,dose-dependent thermal stabilisation call
1,AP3M2 (UniProt P53677),inactive: 0
2,ANXA2 (UniProt P07355),inactive: 0
3,ACTR3 (UniProt P61158),active: 1
4,AGO3 (UniProt Q9H9G7),inactive: 0
5,ACOX1 (UniProt Q15067),inactive: 0
6,ACYP1 (UniProt P07311),inactive: 0
7,AFTPH (UniProt Q6ULP2),inactive: 0
8,ANKRD39 (UniProt Q53RE8),inactive: 0
9,ADPRM (UniProt Q3LIE5),inactive: 0
10,AP1G2 (UniProt O75843),inactive: 0
11,ACAP2 (UniProt Q15057),inactive: 0
12,AQR (UniProt O60306),inactive: 0
13,AMOT (UniProt Q4VCS5),inactive: 0
14,AKAP9 (UniProt Q99996),inactive: 0
15,ARFIP1 (UniProt P53367),inactive: 0
16,ANXA3 (UniProt P12429),active: 1
17,ABCF2 (UniProt Q9UG63),active: 1
18,AAMP (UniProt Q13685),inactive: 0
19,AGFG2 (UniProt O95081),inactive: 0
20,ACOT7 (UniProt O00154),inactive: 0

row,Target,dose-dependent thermal stabilisation call
1,ALDH16A1 (UniProt Q8IZ83),inactive: 0
2,ADNP (UniProt Q9H2P0),inactive: 0
3,AGO4 (UniProt Q9HCK5),inactive: 0
4,ANKHD1 (UniProt Q8IWZ3),inactive: 0
5,ACLY (UniProt P53396),inactive: 0
6,AIM1 (UniProt Q9Y4K1),inactive: 0
7,ALDH18A1 (UniProt P54886),inactive: 0
8,AFDN (UniProt P55196),inactive: 0
9,AKAP2 (UniProt Q9Y2D5),inactive: 0
10,ARFIP2 (UniProt P53365),inactive: 0
11,AKAP13 (UniProt Q12802),inactive: 0
12,AP5S1 (UniProt Q9NUS5),inactive: 0
13,ANKRD17 (UniProt O75179),inactive: 0
14,AKAP5 (UniProt P24588),inactive: 0
15,APOL3 (UniProt O95236),inactive: 0
16,ANKFY1 (UniProt Q9P2R3),active: 1
17,AHCTF1 (UniProt Q8WYP5),inactive: 0
18,AIP (UniProt O00170),inactive: 0
19,ACAT2 (UniProt Q9BWD1),inactive: 0
20,ANP32A (UniProt P39687),inactive: 0

# Look-ups from above:
# dose-dependent thermal stabilisation call with AAMP (UniProt Q13685) is entered as inactive: 0
# dose-dependent thermal stabilisation call with AIP (UniProt O00170) is entered as inactive: 0
